Data: patent publication US20090142349A1
These are yes or no findings as the source states them, for the method shown. Some entries that bind do so weakly or less than the wild type.

Target: cynomolgus monkey CD19 on blood B-cells (cynomolgus monkey)
Assay: FACS staining of cynomolgus monkey blood

B1: human monoclonal antibody 21D4 (antibody, V domains shown)
VH: EVQLVQSGAEVKKPGESLKISCKGSGYSFSSSWIGWVRQMPGKGLEWMGIIYPDDSDTRYSPSFQGQVTISADKSIRTAYLQWSSLKASDTAMYYCARHVTMIWGVIIDFWGQGTLVTVSS
VL: AIQLTQSPSSLSASVGDRVTITCRASQGISSALAWYQQKPGKAPKLLIYDASSLESGVPSRFSGSGSGTDFTLTISSLQPEDFATYYCQQFNSYPYTFGQGTKLEIK
Question: For B1, which binding is on record?
Answer: binds
